Laboratory results taken from the supplement of paper PMC12067093, “Discovery and optimisation of a covalent ligand for TRIM25 and its application to targeted protein ubiquitination” (Chemical Science, 2025).
This is one part of the list.

Chains of the proteins cited; added tags and fusions are not shown. Lines headed by an entry give the natural chain unless they say otherwise; changes in a name come on top.
UniProt P08047, whole entry, looked up: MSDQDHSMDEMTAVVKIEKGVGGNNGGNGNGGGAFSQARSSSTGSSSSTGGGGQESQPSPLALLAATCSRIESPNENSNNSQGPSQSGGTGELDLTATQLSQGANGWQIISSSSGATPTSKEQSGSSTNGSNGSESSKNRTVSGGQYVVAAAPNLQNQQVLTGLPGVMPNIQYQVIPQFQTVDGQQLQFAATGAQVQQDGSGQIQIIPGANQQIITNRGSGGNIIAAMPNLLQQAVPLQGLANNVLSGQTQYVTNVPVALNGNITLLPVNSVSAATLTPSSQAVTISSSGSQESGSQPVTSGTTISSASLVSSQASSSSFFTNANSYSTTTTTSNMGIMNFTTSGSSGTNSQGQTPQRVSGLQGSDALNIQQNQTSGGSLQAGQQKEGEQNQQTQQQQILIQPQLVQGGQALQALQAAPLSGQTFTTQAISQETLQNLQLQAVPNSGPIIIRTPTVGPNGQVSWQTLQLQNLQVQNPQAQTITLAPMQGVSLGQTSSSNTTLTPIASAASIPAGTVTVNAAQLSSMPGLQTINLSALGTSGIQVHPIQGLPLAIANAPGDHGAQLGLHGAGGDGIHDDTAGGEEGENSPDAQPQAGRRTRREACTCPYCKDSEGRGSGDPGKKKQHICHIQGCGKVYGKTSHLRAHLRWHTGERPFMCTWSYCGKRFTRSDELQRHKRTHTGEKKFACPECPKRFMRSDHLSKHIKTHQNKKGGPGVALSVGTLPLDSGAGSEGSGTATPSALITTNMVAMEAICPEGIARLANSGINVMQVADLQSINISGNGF
UniProt Q9H8P0: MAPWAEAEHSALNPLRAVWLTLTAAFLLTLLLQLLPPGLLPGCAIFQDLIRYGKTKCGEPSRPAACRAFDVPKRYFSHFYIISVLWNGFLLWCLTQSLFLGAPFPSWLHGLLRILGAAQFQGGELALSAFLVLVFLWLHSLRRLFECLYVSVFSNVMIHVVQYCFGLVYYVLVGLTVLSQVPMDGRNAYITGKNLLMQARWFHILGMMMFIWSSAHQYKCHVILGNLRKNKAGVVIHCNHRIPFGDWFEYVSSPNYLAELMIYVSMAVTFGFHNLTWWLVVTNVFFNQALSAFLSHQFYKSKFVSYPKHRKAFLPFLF
UniProt P62316, whole entry, looked up: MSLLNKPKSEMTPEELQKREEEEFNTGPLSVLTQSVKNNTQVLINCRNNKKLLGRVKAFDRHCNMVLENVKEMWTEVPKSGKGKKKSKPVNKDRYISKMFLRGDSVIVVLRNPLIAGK
UniProt O60271: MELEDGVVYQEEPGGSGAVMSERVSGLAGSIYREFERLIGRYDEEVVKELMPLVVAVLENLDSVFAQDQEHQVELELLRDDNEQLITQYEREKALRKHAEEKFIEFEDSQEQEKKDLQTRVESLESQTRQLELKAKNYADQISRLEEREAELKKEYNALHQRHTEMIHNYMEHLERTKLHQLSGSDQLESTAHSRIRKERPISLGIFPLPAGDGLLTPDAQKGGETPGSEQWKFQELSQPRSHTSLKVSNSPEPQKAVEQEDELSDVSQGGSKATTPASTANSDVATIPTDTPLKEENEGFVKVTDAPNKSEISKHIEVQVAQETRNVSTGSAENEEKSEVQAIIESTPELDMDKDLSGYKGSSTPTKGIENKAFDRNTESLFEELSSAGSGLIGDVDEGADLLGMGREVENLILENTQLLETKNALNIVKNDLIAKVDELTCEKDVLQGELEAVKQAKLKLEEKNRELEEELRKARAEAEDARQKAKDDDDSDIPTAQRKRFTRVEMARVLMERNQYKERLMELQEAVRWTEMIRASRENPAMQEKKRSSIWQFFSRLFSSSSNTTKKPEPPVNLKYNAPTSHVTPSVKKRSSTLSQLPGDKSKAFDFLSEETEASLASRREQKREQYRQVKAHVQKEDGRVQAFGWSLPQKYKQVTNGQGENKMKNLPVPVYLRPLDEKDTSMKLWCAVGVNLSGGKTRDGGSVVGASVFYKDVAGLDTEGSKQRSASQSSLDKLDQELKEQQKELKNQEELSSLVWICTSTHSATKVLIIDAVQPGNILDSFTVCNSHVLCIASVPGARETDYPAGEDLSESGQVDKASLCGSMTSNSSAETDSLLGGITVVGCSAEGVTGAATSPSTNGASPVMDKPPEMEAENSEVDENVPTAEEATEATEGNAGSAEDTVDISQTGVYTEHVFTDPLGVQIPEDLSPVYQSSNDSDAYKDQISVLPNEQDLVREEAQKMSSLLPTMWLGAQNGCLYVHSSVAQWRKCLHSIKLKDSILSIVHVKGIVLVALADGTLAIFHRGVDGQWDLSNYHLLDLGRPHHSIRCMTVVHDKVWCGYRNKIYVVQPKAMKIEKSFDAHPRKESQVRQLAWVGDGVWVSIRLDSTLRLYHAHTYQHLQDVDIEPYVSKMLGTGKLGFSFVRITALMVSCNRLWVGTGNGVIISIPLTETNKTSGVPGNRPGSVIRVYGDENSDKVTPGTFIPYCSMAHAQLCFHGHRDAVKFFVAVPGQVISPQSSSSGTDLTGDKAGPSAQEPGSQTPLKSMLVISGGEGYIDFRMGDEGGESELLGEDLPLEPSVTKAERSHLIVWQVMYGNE
UniProt P55769: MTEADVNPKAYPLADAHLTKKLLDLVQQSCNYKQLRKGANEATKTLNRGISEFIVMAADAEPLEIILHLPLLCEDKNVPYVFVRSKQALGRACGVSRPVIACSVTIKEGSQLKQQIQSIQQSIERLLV
UniProt Q9UHB9: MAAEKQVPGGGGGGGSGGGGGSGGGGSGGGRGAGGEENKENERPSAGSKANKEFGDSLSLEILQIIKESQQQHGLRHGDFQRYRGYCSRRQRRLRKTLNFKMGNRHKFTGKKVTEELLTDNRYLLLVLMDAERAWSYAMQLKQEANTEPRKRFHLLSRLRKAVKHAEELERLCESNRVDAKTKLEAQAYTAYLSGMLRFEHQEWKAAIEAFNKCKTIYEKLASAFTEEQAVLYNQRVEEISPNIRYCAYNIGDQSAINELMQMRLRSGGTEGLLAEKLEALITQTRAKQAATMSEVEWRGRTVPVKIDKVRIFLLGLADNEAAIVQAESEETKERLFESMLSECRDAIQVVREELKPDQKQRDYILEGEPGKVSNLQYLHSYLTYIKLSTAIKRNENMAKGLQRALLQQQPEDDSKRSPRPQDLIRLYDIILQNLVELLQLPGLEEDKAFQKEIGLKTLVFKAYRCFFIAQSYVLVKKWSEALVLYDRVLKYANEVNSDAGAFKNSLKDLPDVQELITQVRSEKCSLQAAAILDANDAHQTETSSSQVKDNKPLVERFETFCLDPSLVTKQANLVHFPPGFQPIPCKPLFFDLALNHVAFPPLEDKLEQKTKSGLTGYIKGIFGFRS
UniProt P09234, whole entry, looked up: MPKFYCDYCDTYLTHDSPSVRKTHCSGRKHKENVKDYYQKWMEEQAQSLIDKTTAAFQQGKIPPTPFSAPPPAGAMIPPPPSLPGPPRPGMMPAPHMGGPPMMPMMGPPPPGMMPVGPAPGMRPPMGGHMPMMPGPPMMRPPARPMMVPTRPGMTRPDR
UniProt Q8NB90: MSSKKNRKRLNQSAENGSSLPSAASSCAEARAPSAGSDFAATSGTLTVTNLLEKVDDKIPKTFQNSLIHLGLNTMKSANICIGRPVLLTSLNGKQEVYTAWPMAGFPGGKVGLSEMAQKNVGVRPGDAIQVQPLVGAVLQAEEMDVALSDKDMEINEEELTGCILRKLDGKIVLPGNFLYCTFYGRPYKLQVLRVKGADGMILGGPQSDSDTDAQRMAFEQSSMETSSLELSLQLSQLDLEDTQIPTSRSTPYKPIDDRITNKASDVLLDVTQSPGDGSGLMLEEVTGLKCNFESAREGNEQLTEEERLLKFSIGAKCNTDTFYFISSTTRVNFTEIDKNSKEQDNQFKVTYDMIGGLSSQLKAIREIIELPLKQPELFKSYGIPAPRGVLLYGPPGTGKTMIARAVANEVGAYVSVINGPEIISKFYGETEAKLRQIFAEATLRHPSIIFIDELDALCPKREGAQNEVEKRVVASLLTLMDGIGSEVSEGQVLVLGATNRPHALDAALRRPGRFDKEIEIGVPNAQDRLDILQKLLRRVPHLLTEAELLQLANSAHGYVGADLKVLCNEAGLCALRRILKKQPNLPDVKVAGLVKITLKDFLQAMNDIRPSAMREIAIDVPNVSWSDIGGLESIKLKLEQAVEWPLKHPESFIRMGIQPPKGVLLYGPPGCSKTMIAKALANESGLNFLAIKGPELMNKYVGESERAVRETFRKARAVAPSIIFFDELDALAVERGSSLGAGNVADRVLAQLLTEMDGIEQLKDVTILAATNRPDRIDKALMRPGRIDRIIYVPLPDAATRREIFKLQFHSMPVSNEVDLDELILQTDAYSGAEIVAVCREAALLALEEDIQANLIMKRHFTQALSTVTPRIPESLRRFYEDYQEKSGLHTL
UniProt Q8N5C6: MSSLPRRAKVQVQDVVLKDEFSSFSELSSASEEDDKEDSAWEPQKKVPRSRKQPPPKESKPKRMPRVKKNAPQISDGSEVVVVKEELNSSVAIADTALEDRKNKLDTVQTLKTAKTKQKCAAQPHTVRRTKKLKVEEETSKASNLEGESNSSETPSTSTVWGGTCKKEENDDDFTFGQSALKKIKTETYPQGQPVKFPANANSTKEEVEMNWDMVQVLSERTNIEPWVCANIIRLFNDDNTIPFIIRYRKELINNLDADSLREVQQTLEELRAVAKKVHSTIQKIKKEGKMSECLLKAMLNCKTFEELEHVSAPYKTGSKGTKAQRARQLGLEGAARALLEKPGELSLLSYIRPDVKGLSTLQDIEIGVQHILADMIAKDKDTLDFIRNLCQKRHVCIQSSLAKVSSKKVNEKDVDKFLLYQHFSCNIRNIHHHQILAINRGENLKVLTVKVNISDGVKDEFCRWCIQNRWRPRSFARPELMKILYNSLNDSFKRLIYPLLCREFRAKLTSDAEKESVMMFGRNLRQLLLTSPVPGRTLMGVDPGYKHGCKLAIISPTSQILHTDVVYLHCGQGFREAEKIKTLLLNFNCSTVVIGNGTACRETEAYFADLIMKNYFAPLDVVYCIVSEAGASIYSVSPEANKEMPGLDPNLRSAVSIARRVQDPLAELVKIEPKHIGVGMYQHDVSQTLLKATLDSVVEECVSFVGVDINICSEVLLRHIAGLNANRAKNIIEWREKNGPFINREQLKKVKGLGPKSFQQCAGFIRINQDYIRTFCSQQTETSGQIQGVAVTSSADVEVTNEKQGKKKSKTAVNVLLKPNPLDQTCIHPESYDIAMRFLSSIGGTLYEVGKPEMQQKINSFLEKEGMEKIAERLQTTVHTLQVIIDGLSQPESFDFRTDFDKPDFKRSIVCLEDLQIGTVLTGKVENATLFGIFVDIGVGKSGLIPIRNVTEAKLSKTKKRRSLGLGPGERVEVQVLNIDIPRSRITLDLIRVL
UniProt Q8TCT8: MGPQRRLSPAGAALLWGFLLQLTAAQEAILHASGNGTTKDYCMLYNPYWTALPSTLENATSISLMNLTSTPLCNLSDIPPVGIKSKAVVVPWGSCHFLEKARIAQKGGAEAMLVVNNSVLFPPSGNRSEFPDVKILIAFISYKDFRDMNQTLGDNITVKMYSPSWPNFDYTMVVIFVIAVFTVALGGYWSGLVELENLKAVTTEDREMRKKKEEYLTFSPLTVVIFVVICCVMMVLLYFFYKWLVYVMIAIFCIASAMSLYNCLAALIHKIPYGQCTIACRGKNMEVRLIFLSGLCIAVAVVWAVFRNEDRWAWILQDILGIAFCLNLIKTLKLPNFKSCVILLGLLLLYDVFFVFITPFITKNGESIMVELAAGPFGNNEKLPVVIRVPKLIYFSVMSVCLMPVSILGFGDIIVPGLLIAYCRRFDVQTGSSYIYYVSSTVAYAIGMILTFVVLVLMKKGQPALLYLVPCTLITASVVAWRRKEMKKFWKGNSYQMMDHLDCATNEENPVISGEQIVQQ
UniProt O76094: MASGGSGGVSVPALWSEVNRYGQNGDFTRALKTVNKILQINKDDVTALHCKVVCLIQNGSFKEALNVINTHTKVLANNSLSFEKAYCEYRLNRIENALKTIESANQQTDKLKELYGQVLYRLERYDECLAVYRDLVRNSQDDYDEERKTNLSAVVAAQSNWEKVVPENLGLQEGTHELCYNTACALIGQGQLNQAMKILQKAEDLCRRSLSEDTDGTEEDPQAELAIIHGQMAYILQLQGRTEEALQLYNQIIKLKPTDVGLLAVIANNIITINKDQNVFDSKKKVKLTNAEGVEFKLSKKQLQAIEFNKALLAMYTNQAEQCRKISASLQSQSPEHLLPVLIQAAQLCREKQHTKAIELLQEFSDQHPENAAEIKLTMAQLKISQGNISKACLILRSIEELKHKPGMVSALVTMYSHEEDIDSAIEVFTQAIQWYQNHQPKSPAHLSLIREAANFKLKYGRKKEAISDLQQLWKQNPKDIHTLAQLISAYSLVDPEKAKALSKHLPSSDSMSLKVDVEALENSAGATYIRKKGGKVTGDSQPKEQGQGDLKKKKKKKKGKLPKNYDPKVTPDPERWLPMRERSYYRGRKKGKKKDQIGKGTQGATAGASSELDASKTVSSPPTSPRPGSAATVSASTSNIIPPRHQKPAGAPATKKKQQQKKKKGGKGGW

Compound: CC1Cc2ccccc2N1C(=O)C1CCCN(C1)C(=O)CCl (mixture of isomers) [TRIM25 ligand 11 (diastereomer mixture)]
Experiment: probe-labelled cysteine peptide fold change vs DMSO (competition) (log2 fold change); higher = less target engagement (more negative = stronger competition)
Details: 10 µM; THP-1; incubation time: 4 h
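Note: competitive chemoproteomic profiling in live THP-1 cells with an iodoacetamide desthiobiotin (IA-DTB) probe, comparing probe-labelled peptide intensities in compound-treated cells against DMSO-treated controls.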

Row | Target | probe-labelled cysteine peptide fold change
1 | SP110_Q9HB58_327_DDSTCNSTVETR (UniProt Q9HB58) | 0.0292
2 | SP1_P08047_633_KQHICHIQGCGK (UniProt P08047) | -0.185
3 | SNRNP70_P08621_39_HHNQPYCGIAPYIR (UniProt P08621) | -0.124
4 | SRD5A3_Q9H8P0_238_AGVVIHCNHR (UniProt Q9H8P0) | 0.00183
5 | SNX14_Q9Y5W7_593_IPVFCIDVER (UniProt Q9Y5W7) | 0.3
6 | SPTAN1_Q13813_2233_TYLLDGSCMVEESGTLESQLEATK (UniProt Q13813) | 0.147
7 | SPECC1_Q5M775_598_DLLELSCNELR (UniProt Q5M775) | -0.0445
8 | SNRPD2_P62316_63_HCNMVLENVK (UniProt P62316) | -0.117
9 | SPAG9_O60271_1210_VTPGTFIPYCSMAHAQLCFHGHR (UniProt O60271) | 0.413
10 | SNU13_P55769_102_ACGVSRPVIACSVTIK (UniProt P55769) | -0.00857
11 | SPTLC1_O15269_255_FIVVEGLYMNTGTICPLPELVK (UniProt O15269) | 0.0161
12 | SPINDOC_Q9BUA3_12_AEGAALDCFEVTLK (UniProt Q9BUA3) | -0.242
13 | SRP68_Q9UHB9_173_LCESNR (UniProt Q9UHB9) | 0.14
14 | SQOR_Q9Y6N5_127_NCIHTDDDEK (UniProt Q9Y6N5) | -0.0247
15 | SNRPC_P09234_25_THCSGR (UniProt P09234) | -0.0142
16 | SNX27_Q96L92_432+434_TCEGYNEIIFPHCACDSR (UniProt Q96L92) | 0.835
17 | SPATA5_Q8NB90_574_VLCNEAGLCALRR (UniProt Q8NB90) | -0.161
18 | SPAG9_O60271_689_LWCAVGVNLSGGK (UniProt O60271) | -0.234

A few values from above.
Entry of SNX27_Q96L92_432+434_TCEGYNEIIFPHCACDSR (UniProt Q96L92) under probe-labelled cysteine peptide fold change: 0.835
Entry of SNRPD2_P62316_63_HCNMVLENVK (UniProt P62316) under probe-labelled cysteine peptide fold change: -0.117

Later entries:

Row | Target | probe-labelled cysteine peptide fold change
19 | SOD1_P00441_112_HVGDLGNVTADKDGVADVSIEDSVISLSGDHCIIGR (UniProt P00441) | -0.17
20 | SNX20_Q7Z614_155_HLTGNFAEEMICER (UniProt Q7Z614) | -0.0274
21 | SQSTM1_Q13501_113_DHRPPCAQEAPR (UniProt Q13501) | -0.122
22 | SNX9_Q9Y5X1_399_CEAVGK (UniProt Q9Y5X1) | 0.0851
23 | SRBD1_Q8N5C6_397_HVCIQSSLAK (UniProt Q8N5C6) | 0.0119
24 | SP100_P23497_373_EGQEATCSRPQIVPEPMDFR (UniProt P23497) | -0.0901
25 | SNX3_O60493_140_CLHMFLQDEIIDKSYTPSKIRHA (UniProt O60493) | -0.0562
26 | SORL1_Q92673_752_LEGELVPCPLAEENEFILYAVR (UniProt Q92673) | 0.297
27 | SRBD1_Q8N5C6_165_ASNLEGESNSSETPSTSTVWGGTCK (UniProt Q8N5C6) | -0.137
28 | SRI_P30626_75_CLTQSGIAGGYKPFNLETCR (UniProt P30626) | 0.0396
29 | SPPL2A_Q8TCT8_95_AVVVPWGSCHFLEK (UniProt Q8TCT8) | 0.0216
30 | SRP68_Q9UHB9_562_FETFCLDPSLVTK (UniProt Q9UHB9) | -0.102
31 | SORD_Q00796_106_ENDEFCK (UniProt Q00796) | -0.112
32 | SPG11_Q96JI7_1890_LLDDGCVHEASR (UniProt Q96JI7) | 0.0515
33 | SNU13_P55769_30_LLDLVQQSCNYK (UniProt P55769) | -0.094
34 | SRP68_Q9UHB9_87_YRGYCSR (UniProt Q9UHB9) | -0.132
35 | SPATA20_Q8TB22_721_ALVQCVHSVYIPNK (UniProt Q8TB22) | -0.131
36 | SRP72_O76094_128_YDECLAVYR (UniProt O76094) | 0.102
